Experimental data: PubChem BioAssay AID1508588 (Peter MacCallum Cancer Centre, 2020)
Assay: 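Genome-wide search for knock-downs that heighten vemurafenib action in melanoma cells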 (primary screen). Cell system: human WM266.4 melanoma cells (BRAF V600 mutant). Reagents: siRNA pool against human genes, 40 nM. Duration: 96 h from transfection to read-out. Treatment: vemurafenib 300 nM (about IC25), added 48 h after transfection, for 48 h; comparison arm got DMSO vehicle only. Measurement: 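Ratios to non-targeting siRNA for cell gain, counted as DAPI nuclei after minus before drug and averaged over two replicates, and for absorbance-read medium lactate per cell; both binned into fold-change classes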. Reading the numbers: cell gain with vemurafenib: higher = more cell gain than with non-targeting siRNA; lactate per cell with vemurafenib: higher = more lactate made per cell. Rule for the call: 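Enhancement is called by pairing each knock-down's vehicle-arm and drug-arm fold-change classes for viability or glycolysis; which class combinations qualify is not given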. Meaning of the calls: active = enhances vemurafenib effect; inactive = no enhancement seen.
The deposit covers about 18,000 reagents; shown is a part drawn at random. In the full data, 790 (4.4%) are marked active. 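Calls rest on a combination of fold-change classes in drug and vehicle arms, not all shown here.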 No sequences are given here.

For NGB [SID152147867], what was measured?
cell gain with vemurafenib: 0.2; lactate per cell with vemurafenib: 0.92; Outcome: inactive

With KLHL24 [SID152156384], what does the deposit list?
cell gain with vemurafenib: 0.35; lactate per cell with vemurafenib: 0.54; Outcome: inactive

For RNF24 [SID134312069], what was measured?
cell gain with vemurafenib: 0.43; lactate per cell with vemurafenib: 1.08; Outcome: inactive

With PEMT [SID134314962], what does the deposit list?
cell gain with vemurafenib: 0.37; lactate per cell with vemurafenib: 0.23; Outcome: inactive

What did the screen give for ERCC6 [SID134310656]?
cell gain with vemurafenib: 0.02; lactate per cell with vemurafenib: 1.01; Outcome: inactive

What did the screen give for FAM107B [SID134318834]?
cell gain with vemurafenib: 0.51; lactate per cell with vemurafenib: 0.8; Outcome: inactive

For MTMR14 [SID152154236], what was measured?
cell gain with vemurafenib: 0.51; lactate per cell with vemurafenib: 0.71; Outcome: inactive

Which result is listed for PGPEP1 [SID152153397]?
cell gain with vemurafenib: 0.36; lactate per cell with vemurafenib: 0.78; Outcome: inactive

What did the screen give for MGAT4A [SID135622322]?
cell gain with vemurafenib: 0.72; lactate per cell with vemurafenib: 1.42; Outcome: inactive

For SPRR2G [SID152153162], what was measured?
cell gain with vemurafenib: 0.81; lactate per cell with vemurafenib: 0.82; Outcome: inactive

For CACNA2D4 [SID135624217], what does the deposit list?
cell gain with vemurafenib: 0.03; lactate per cell with vemurafenib: 1.45; Outcome: inactive

For CALR3 [SID134320230], what was measured?
cell gain with vemurafenib: 0.59; lactate per cell with vemurafenib: 0.74; Outcome: inactive

For CARM1 [SID134310283], what does the deposit list?
cell gain with vemurafenib: 0.72; lactate per cell with vemurafenib: 0.54; Outcome: inactive

How did the screen score MIER1 [SID135622692]?
cell gain with vemurafenib: 1.01; lactate per cell with vemurafenib: 0.92; Outcome: inactive

What is on record for OR2M4 [SID135624681]?
cell gain with vemurafenib: 0.63; lactate per cell with vemurafenib: 1.17; Outcome: inactive

In a second layout: results already given
| Target gene | PubChem SID | cell gain with vemurafenib | lactate per cell with vemurafenib | Outcome |
| --- | --- | --- | --- | --- |
| MTMR14 | SID152154236 | 0.51 | 0.71 | inactive |
| PGPEP1 | SID152153397 | 0.36 | 0.78 | inactive |
| MGAT4A | SID135622322 | 0.72 | 1.42 | inactive |
| SPRR2G | SID152153162 | 0.81 | 0.82 | inactive |

The results go on:
What is on record for TAC1 [SID134316106]?
cell gain with vemurafenib: 0.9; lactate per cell with vemurafenib: 0.31; Outcome: inactive

With SCN2B [SID152151643], what was measured?
cell gain with vemurafenib: 0.46; lactate per cell with vemurafenib: 1.25; Outcome: inactive

How did the screen score COBLL1 [SID135623993]?
cell gain with vemurafenib: 0.24; lactate per cell with vemurafenib: 0.62; Outcome: inactive

For SNRPD3 [SID134322897], what was measured?
cell gain with vemurafenib: 0.23; lactate per cell with vemurafenib: 1.84; Outcome: inactive

With PRR7 [SID152151276], what does the deposit list?
cell gain with vemurafenib: 0.6; lactate per cell with vemurafenib: 0.85; Outcome: inactive

With COPS8 [SID135623031], what was measured?
cell gain with vemurafenib: 0.6; lactate per cell with vemurafenib: 1.7; Outcome: inactive

With NMNAT2 [SID134313440], what does the deposit list?
cell gain with vemurafenib: 0.68; lactate per cell with vemurafenib: 1.33; Outcome: inactive

What is on record for CFTR [SID152152172]?
cell gain with vemurafenib: 1.07; lactate per cell with vemurafenib: 0.7; Outcome: inactive

With HADHB [SID152150990], how do the results read?
cell gain with vemurafenib: 0.69; lactate per cell with vemurafenib: 0.76; Outcome: inactive

With UROS [SID152149712], what does the deposit list?
cell gain with vemurafenib: 0.8; lactate per cell with vemurafenib: 0.63; Outcome: inactive

Which result is listed for SLC35F6 [SID152155601]?
cell gain with vemurafenib: 0.84; lactate per cell with vemurafenib: 0.42; Outcome: inactive

What did the screen give for KNCN [SID152150589]?
cell gain with vemurafenib: 0.16; lactate per cell with vemurafenib: 2.86; Outcome: inactive

What did the screen give for SLC9A4 [SID152153084]?
cell gain with vemurafenib: 0.43; lactate per cell with vemurafenib: 1.42; Outcome: inactive

How did the screen score PSMD10 [SID134315710]?
cell gain with vemurafenib: 0.42; lactate per cell with vemurafenib: 0.64; Outcome: inactive

How did the screen score KRTAP23-1 [SID134313970]?
cell gain with vemurafenib: 0.65; lactate per cell with vemurafenib: 1.08; Outcome: inactive

What did the screen give for CNTD1 [SID134322265]?
cell gain with vemurafenib: 0.15; lactate per cell with vemurafenib: 1.34; Outcome: inactive

What did the screen give for AKAP19 [SID135622827]?
cell gain with vemurafenib: 0.66; lactate per cell with vemurafenib: 0.22; Outcome: inactive

With RMND5B [SID134320325], how do the results read?
cell gain with vemurafenib: 0.69; lactate per cell with vemurafenib: 1.14; Outcome: inactive

Which result is listed for WFS1 [SID134314457]?
cell gain with vemurafenib: 0.65; lactate per cell with vemurafenib: 0.93; Outcome: inactive

With ATP11AUN [SID134329593], how do the results read?
cell gain with vemurafenib: 1.06; lactate per cell with vemurafenib: 0.62; Outcome: inactive

What is on record for SLC7A7 [SID152150248]?
cell gain with vemurafenib: 0.57; lactate per cell with vemurafenib: 0.8; Outcome: inactive

With PREX1 [SID135621881], what does the deposit list?
cell gain with vemurafenib: 0.89; lactate per cell with vemurafenib: 0.87; Outcome: inactive

What is on record for CD48 [SID152148578]?
cell gain with vemurafenib: 0.88; lactate per cell with vemurafenib: 0.47; Outcome: active

With FAM222B [SID152154439], how do the results read?
cell gain with vemurafenib: 0.21; lactate per cell with vemurafenib: 2.75; Outcome: inactive

With SLC25A27 [SID135621383], what was measured?
cell gain with vemurafenib: 0.34; lactate per cell with vemurafenib: 0.84; Outcome: inactive
